Measurements as given in patent US20170204191A1.
Results are given in words; binding and its absence hold for the method and conditions named. Some results given as binding are weak or reduced against the parent protein; the word gives no strength.

Legend:
[1] = target: T1, MUC1* on the cell surface of MUC1-positive breast cancer cells (ZR-75-1, T47D), P15941; experiment: FACS on live ZR-75-1 cells, purified antibody; conditions: remark: other sources report otherwise
[2] = target: T1, MUC1* on the cell surface of …; experiment: FACS on intact cells; conditions: remark: other sources report otherwise

binding [1]: binds
binding [2]: binds
B1: MIN-C2 monoclonal antibody (antibody, V domains shown)
VH: EVQLEESGGGLVKPGGSLKLSCAASGFTFSGYAMSWVRQTPEKRLEWVATISSGGTYIYYPDSVKGRFTISRDNAKNTLYLQMSSLRSEDTAMYYCARLGGDNYYEYFDVWGAGTTVTVSSAKTTPPSVY
VL: DIVITQSTASLGVSLGQRATISCRASKSVSTSGYSYMHWYQQRPGQPPKLLIYLASNLESGVPARFSGSGSGTDFTLNIHPVEEEDAATYYCQHSRELPFTFGGGTKLEIKRADAAPTVS
